Source: patent US20040096922A1
No constants are given. Whether binding was seen depends on the method and setting. Binding seen in cells or lysates may run through a third protein. Some results given as binding are weak or reduced against the parent protein; the word gives no strength.

Columns and labels:
[1] = biological target: T1, Endogenous inversin in mouse kidney (mouse) (UniProt O89019); assay: co-immunoprecipitation from mouse tissue (figure legend)
T1 sequence (looked up): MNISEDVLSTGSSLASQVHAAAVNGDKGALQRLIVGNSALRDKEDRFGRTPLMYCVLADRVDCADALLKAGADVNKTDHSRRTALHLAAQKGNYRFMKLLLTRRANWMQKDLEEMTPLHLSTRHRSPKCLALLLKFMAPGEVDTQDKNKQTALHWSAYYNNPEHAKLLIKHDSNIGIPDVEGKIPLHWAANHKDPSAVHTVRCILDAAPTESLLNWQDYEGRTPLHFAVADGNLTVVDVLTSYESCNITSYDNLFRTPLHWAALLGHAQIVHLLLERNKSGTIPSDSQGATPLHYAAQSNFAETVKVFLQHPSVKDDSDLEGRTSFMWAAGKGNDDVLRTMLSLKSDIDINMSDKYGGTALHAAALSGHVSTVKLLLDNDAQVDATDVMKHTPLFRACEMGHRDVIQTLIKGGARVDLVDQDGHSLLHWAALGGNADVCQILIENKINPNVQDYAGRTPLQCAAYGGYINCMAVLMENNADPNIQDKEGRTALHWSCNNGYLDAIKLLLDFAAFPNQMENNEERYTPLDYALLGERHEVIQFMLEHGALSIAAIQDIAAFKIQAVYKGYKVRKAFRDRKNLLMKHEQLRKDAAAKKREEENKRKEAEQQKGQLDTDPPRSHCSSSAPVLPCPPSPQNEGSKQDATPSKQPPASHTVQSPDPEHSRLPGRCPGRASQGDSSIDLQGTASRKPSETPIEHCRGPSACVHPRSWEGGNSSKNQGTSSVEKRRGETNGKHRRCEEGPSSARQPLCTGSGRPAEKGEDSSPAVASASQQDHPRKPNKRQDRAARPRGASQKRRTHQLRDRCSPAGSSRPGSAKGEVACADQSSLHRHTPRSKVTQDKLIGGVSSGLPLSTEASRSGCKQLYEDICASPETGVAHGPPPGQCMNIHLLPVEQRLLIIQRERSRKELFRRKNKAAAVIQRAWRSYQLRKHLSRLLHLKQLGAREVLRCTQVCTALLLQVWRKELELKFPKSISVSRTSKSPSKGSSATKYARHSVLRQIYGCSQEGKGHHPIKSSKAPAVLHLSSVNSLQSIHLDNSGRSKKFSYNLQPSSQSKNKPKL

[2] = biological target: T1, Endogenous inversin in mouse kidney (mouse); assay: co-immunoprecipitation from mouse kidney tissue lysate with anti-nephrocystin antisera

B1: Endogenous nephrocystin in mouse kidney (protein, UniProt Q9QY53 1-687, looked up)
chain: MLARRPRDPLQALRRRGQELKLQVDSLVTESQLTGALEPSKRREIYQRCIQLKQAVDENKNTLQKLNKADEAAPVGNYEQRKEEEHSLLEKLACQLQELAVSISRKDALKVEAHSDKEEDDTTEDDEEETGGEEEESEGDGEGKQEQASPKQAETETVTYIALGDFAAQQTGDLTFKKGDVLHIIEKKPDGWWLAKDAEGVEGLIPRTYLEPYNKEDKLESSEGSEEGGEEDGEEDVEVVDETADGAQVKQRTDSHWSAVRKAISEQINTVDVLATMGAIPAGFRPSTLSQLLDEAGNQFRASYFLQPELTTSQLAFRDLTWDAKAGTIMSRPSRVSLILTLWSCKMIPLPGTSIQVLSRHIRLCLFDGSKVLSNIHTVRAVWQPKKPKTWTFSPQVTGILPCLLDGDCFIRSNSSTPDLGILFELGISYIRNSTGERGELSCGWVFLKLFDASGVPIPAKTYELFLNGGTPYEKGVEVDPSVSRRAQGSVFRQMISVRRQPQLLVKLRSLNRRSRAMLSLLPETLVGSMCSAHLLIFYRQILGDVLLRDRTNLQSADLISHPVLATFPLLLEQPDVMDALRSSWSEKESTLKRAEKRDKELLKAEFLLVYHDCVLPLLHSTLLPPFRWAEEETEAARWKAIADFLKQSRENEGSLKALLSPDGVHKPFDLSEQTFDFLGEIRKNSG
binding [1]: binds | binding [2]: binds
